For at least one compound, name, drawing or mass did not settle the structure.
Test system: recurrent glioblastoma (WHO grade IV)
Conditions: human, in vivo

Cn1nnc2c(C(N)=O)ncn2c1=O [temozolomide]
imaging and clinical response (third of three patients): slight improvement on imaging, but failed to improve clinically | imaging and clinical response at first MRI follow-up (two of three patients): significant improvement on imaging | response on brain scans after chemotherapy was added to Avastin: Response

— US10744171B2, “Sequential anti-cancer treatment” (Duke University, priority 2016, dated 2020)
